Results taken from paper doi:10.1101/2022.11.20.517165.

Target: Toc75 (Chlamydomonas reinhardtii)
Assay: cryo-EM structure

B1: Toc34 (protein, UniProt A8HYJ1 1-397)
chain: MAQPPRPAEEYDDDVQEDEDELKEGELDDDESHEAASEGGEAAAGDEEAEDDEQDEEDGDEDSQPWAGLNRLPERDDMLDILNELRAEGRKQLTVLLLGKSSVGKSSLINSLLGEAVVRVQAFKLQADTDITTTVVRQVAVGNSEVDGFRLKLIDTCGLEDPEAGDTVNLGALSKIAEDVRGVGIDVVLYCDRLDLYRVDPLDKAIIDAISSTFGRGIWRRTVVALTHANLVQTPPGTDYDSFVNGRVRLIRGAVRGPLFFRPSLPVALVENSETCPVSSESGFRVLPDGEPWLVALVSQLVDMAAARRRPYKYHPRLSSKPSHRFRWLLPVAIAAEVLFYRRFLHPRLDDNQRRVEREEERVWALRGQQRRALGLHRPHRPDKDAAWRLEQMYDDD
- binding: binds

No constants are given. Whether binding was seen depends on the method and setting. Binding calls can cover weak binding; strength is not graded here.
